## Assay results

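A counter-screen in EP4-overexpressing cells measuring cyclic AMP with a time-resolved FRET kit under weak PGE2 stimulation.
Compounds were tested at 20 µM final. A low (about EC15) PGE2 dose was present.
Percent cAMP induction as a fraction of the 1 µM PGE2 response, averaged over three replicates; a higher value means more cAMP.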

Values are in %.
Common to all entries: measured here: EP4 receptor counter-screen.
This is a side read-out of the assay, for part of the compounds, not drawn at random.

* CCOC(=O)c1ccc2nc(C(F)(F)F)[nH]c(=O)c2c1 [percent of 1 uM PGE2 response; plus low (about EC15) PGE2 agonist] : cAMP induction -1.567%
* C=CCn1c(=O)c(C(=O)NCCc2ccccc2)c(O)c2ccccc21 [percent of 1 uM PGE2 response; plus low (about EC15) PGE2 agonist] : cAMP induction -0.4567%
* O=C(O)/C=C/C(O)c1ccc(Cl)cc1 (stereo unspecified) [percent of 1 uM PGE2 response; plus low (about EC15) PGE2 agonist] : cAMP induction 5.083%
* COc1ccc(-c2nc(NC(C)=O)sc2-c2ccc(OC)cc2)cc1 [percent of 1 uM PGE2 response; plus low (about EC15) PGE2 agonist] : cAMP induction -3.593%
* NC(=O)CSc1nc(-c2ccccc2)c(-c2ccccc2)o1 [percent of 1 uM PGE2 response; plus low (about EC15) PGE2 agonist] : cAMP induction 0.2767%
* CCCSc1ncnc2sc(C)c(C)c12 [percent of 1 uM PGE2 response; plus low (about EC15) PGE2 agonist] : cAMP induction 7.087%
* Clc1ccc(-c2ccc(/C=N/Nc3cc(N4CCOCC4)nc(N4CCOCC4)n3)o2)cc1 [percent of 1 uM PGE2 response; plus low (about EC15) PGE2 agonist] : cAMP induction -1.64%
* N#Cc1sc2nc(C3CC3)cc(-c3ccc(Cl)cc3)c2c1N [percent of 1 uM PGE2 response; plus low (about EC15) PGE2 agonist] : cAMP induction 9.847%
* C=CCSc1nc2ccccc2c(=O)n1Cc1ccccc1 [percent of 1 uM PGE2 response; plus low (about EC15) PGE2 agonist] : cAMP induction -4.723%
* CC1(C)Cc2ccccc2-c2nc3n(c(=O)c21)CCS3 [percent of 1 uM PGE2 response; plus low (about EC15) PGE2 agonist] : cAMP induction 15.63%
* COC(=O)c1ccc(Oc2cc(C)nc(NCc3ccccc3)n2)cc1 [percent of 1 uM PGE2 response; plus low (about EC15) PGE2 agonist] : cAMP induction -9.713%
* N#Cc1c(NC(=O)CSc2n[nH]c(Cc3ccccc3)n2)oc(-c2ccccc2)c1-c1ccccc1 [percent of 1 uM PGE2 response; plus low (about EC15) PGE2 agonist] : cAMP induction 13.27%
* COc1ccc(S(=O)(=O)N2c3cc(C)ccc3OCC2C(C)(C)C)cc1 (stereo unspecified) [percent of 1 uM PGE2 response; plus low (about EC15) PGE2 agonist] : cAMP induction -3.07%
* O=C(COC(=O)c1ccc(S(=O)(=O)N2CCCC2)cc1)Nc1ccc(F)cc1F [percent of 1 uM PGE2 response; plus low (about EC15) PGE2 agonist] : cAMP induction 5.477%

Once more, the final 2:

* COc1ccc(S(=O)(=O)N2c3cc(C)ccc3OCC2C(C)(C)C)cc1 (stereo unspecified) [percent of 1 uM PGE2 response; plus low (about EC15) PGE2 agonist] : cAMP induction -3.07%
* O=C(COC(=O)c1ccc(S(=O)(=O)N2CCCC2)cc1)Nc1ccc(F)cc1F [percent of 1 uM PGE2 response; plus low (about EC15) PGE2 agonist] : cAMP induction 5.477%

Data taken from PubChem BioAssay AID1080, deposited by Emory University Molecular Libraries Screening Center (2008).